Measurements published in PubChem BioAssay AID1347076 (National Center for Advancing Translational Sciences (NCATS), 2019).
In all, about 400,000 compounds went through this assay and about 13,000 (3.2%) were called active. The shares of active, inactive and inconclusive entries below differ from those in the screen. Calls follow the shape of the dose curve; as a rule, active = well fitted cell-killing curve with a large enough effect; inconclusive = small, poorly fitted or top-dose-only effect, or effect the other way; inactive = flat fitted curve, though single readings scatter. Potencies of inconclusive entries are doubtful fits and often do not repeat.

experiment: qHTS assay for MDR1-selective chemotherapeutics: Primary screen using the drug-selected MDR subline cells KB-V1; settings: KB-V1 MDR cells viability, CellTiter-Glo, 72 h; series mostly up to 46.1 µM; also: nearly all actives have a fitted effect of over 60% in size
Summary of the method: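 Luminescent ATP read-out (CellTiter-Glo, 10 min) measures survival of drug-selected KB-V1 MDR cells after 72 h, 37 degrees C compound exposure. Medium: phenol-red-free DMEM, 10% FBS. Values from fitted concentration-response curves.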
Potency is read from the fitted curve at half-maximal effect.

**Q.** With `O=C(CCN1CCN(c2ccccc2)CC1)NNC(=S)Nc1ccccc1` as the compound, how does the Potency read?
**A.** inconclusive: 16.4 µM [cytotoxic, partial curve, poor fit]

**Q.** For `COc1ccc(C)cc1-n1c(C)cc(C=O)c1C`, which Potency is on record?
**A.** inactive

**Q.** Which Potency does the source give for `Cn1c(=O)c2ncn(CC(=O)N/N=C/C=C/c3ccccc3)c2n(C)c1=O` here?
**A.** inconclusive: 14.6 µM [rising, single point]

**Q.** Which Potency does the source give for `Cc1ccc(CN(Cc2cccnc2)C(=S)Nc2cc(Cl)ccc2C)cc1` here?
**A.** inconclusive: 11.6 µM [cytotoxic, partial curve, poor fit]

**Q.** With `Clc1ccc2c(c1)C1OCCC1C(c1ccco1)N2` (centres undefined) as the compound, how does the Potency read?
**A.** inconclusive: 23.1 µM [cytotoxic, partial curve]

**Q.** Which Potency does the source give for `O=C(Nc1ccc(Cl)cc1)c1ccc(CN2CCc3ccccc3C2)cc1` here?
**A.** inactive

**Q.** Which Potency does the source give for `CC1CCN(CCCN2C(=O)C3C(C(=O)Nc4ccc(Cl)cc4)C4C=CC3(O4)C2C(=O)NC2CCCCC2)CC1` (centres undefined) here?
**A.** inactive

**Q.** Which Potency does the source give for `COC(=O)C1=CN(c2ccc3c(c2)OCO3)C(N)=C(C#N)C1c1ccc(-c2ccccc2)cc1` (centres undefined) here?
**A.** active: 3.66 µM

**Q.** Which Potency does the source give for `CCOC(=O)CSc1nnc(CNc2ccc(F)cc2)o1` here?
**A.** inactive

**Q.** For `COc1ccc(CNC(=O)CCn2nc(C)c3c(C)n(-c4ccccc4)nc3c2=O)cc1OC`, which Potency is on record?
**A.** inconclusive: 23.1 µM [rising, single point]

**Q.** Which Potency does the source give for `CC1(C)C2CCC1(CS(=O)(=O)NCc1ccc(S(N)(=O)=O)cc1)C(=O)C2` (centres undefined) here?
**A.** inactive

**Q.** For `CCN(c1ccccc1)S(=O)(=O)c1ccc(NC(=O)c2ccco2)cc1`, which Potency is on record?
**A.** inconclusive: 14.6 µM [cytotoxic, partial curve]

**Q.** Which Potency does the source give for `O=[N+]([O-])c1ccccc1N/N=C/c1ccccc1` here?
**A.** inactive

**Q.** Which Potency does the source give for `Cc1cccn2c(=O)c(/C=C(\C#N)c3nc4ccccc4n3C)c(Oc3ccc(Br)cc3)nc12` here?
**A.** inactive

**Q.** Which Potency does the source give for `COc1ccc(C[C@](C)(N)C(=O)O)cc1OC` here?
**A.** inactive

**Q.** With `COc1cccc2c1OCC(CN1CCN(CCC(C)C)C(CCO)C1)=C2` (centres undefined) as the compound, how does the Potency read?
**A.** inconclusive: 20.6 µM [cytotoxic, single point]

**Q.** For `O=c1oc2ccccc2cc1-c1cn2ccccc2n1`, which Potency is on record?
**A.** inconclusive: 25.9 µM [cytotoxic, single point]

**Q.** For `CCN(CC)c1ccc(CNc2nc3ccccc3n2CCN2CCCCC2)cc1`, which Potency is on record?
**A.** inconclusive: 9.2 µM [cytotoxic, partial curve, poor fit]

**Q.** With `CCc1cccc(NC(=O)c2cc(S(=O)(=O)N3CCCCC3)ccc2N2CCOCC2)c1` as the compound, how does the Potency read?
**A.** inconclusive: 16.4 µM [cytotoxic, single point]

**Q.** Which Potency does the source give for `N#Cc1ccccc1Sc1ccccc1C(=O)Nc1ccc(Br)cc1` here?
**A.** active: 18.4 µM

**Q.** For `CCc1ccc(-c2cc(C)no2)cc1S(=O)(=O)N1CCN(c2ccccc2)CC1`, which Potency is on record?
**A.** inconclusive: 5.8 µM [cytotoxic, partial curve]

**Q.** Which Potency does the source give for `CCC(=O)NC(c1ccccc1OC)c1ccc2cccnc2c1O` (centres undefined) here?
**A.** inconclusive: 14.6 µM [cytotoxic, partial curve, poor fit]

**Q.** With `CN(Cc1ccccc1)C(=O)c1nc2ccccn2c1CNCCCOc1cccnc1` as the compound, how does the Potency read?
**A.** inconclusive: 29.1 µM [rising, single point]

**Q.** Which Potency does the source give for `COc1ccccc1C(=O)Nc1ccc2c(c1)nc1n2CCN(Cc2ccccc2)C1` here?
**A.** inconclusive: 25.9 µM [cytotoxic, single point]

**Q.** Which Potency does the source give for `CC(=O)Nc1ccc2nc(NC(=O)c3ccco3)sc2c1` here?
**A.** inactive

**Q.** Which Potency does the source give for `O=C(Nc1ccc2nc3n(c(=O)c2c1)CCCC3)c1cccc([N+](=O)[O-])c1` here?
**A.** inconclusive: 2.91 µM [cytotoxic, full curve, poor fit]

**Q.** Which Potency does the source give for `O=C(NNC(=O)c1ccc([N+](=O)[O-])o1)c1ccccc1` here?
**A.** inconclusive: 16.4 µM [cytotoxic, single point]

**Q.** For `CC1(C)O[C@H]2[C@@H](O1)[C@@H](C(=O)Nc1ccccc1O)O[C@@H]1OC(C)(C)O[C@@H]12`, which Potency is on record?
**A.** inconclusive: 4.11 µM [rising, full curve, poor fit]

**Q.** With `Nc1ccc(S(=O)(=O)c2ccc(N)c(N)c2)cc1` as the compound, how does the Potency read?
**A.** inconclusive: 29.1 µM [rising, single point]

**Q.** For `c1ccc(N2CCN(Cc3nnnn3C3CCCCC3)CC2)cc1`, which Potency is on record?
**A.** inconclusive: 18.4 µM [cytotoxic, single point]

**Q.** With `Cc1ccc(C2CN(c3ccccc3)CC2C(=O)c2ccc(F)cc2)cc1` (centres undefined) as the compound, how does the Potency read?
**A.** inconclusive: 14.6 µM [cytotoxic, partial curve]

**Q.** For `Cc1c(C(=S)Nc2ccccc2)cnn1-c1ccccc1`, which Potency is on record?
**A.** active: 20.6 µM

**Q.** Which Potency does the source give for `CN(Cc1ccc(Cl)cc1)C(C(=O)NC1CCCCC1)c1ccnc2ccccc12` (centres undefined) here?
**A.** inconclusive: 23.1 µM [cytotoxic, partial curve, poor fit]

**Q.** Which Potency does the source give for `COc1ccc(CN2CC(C(=O)NCCCN3CCOCC3)CC2=O)cc1` (centres undefined) here?
**A.** inconclusive: 16.4 µM [rising, partial curve, poor fit]

**Q.** Which Potency does the source give for `COc1ccc(-n2nc3ccc(NC(=O)c4cc5ccccc5o4)cc3n2)cc1Cl` here?
**A.** inactive

**Q.** With `CCOc1ccc(CNC(=O)C2CCCN(c3nc4c(C)cc(C)cc4s3)C2)cc1` (centres undefined) as the compound, how does the Potency read?
**A.** inactive

**Q.** With `O=C(/C=C/c1cccs1)c1ccc(NC(=O)c2ccccc2F)cc1` as the compound, how does the Potency read?
**A.** inconclusive: 29.1 µM [cytotoxic, single point]

**Q.** With `COc1ccc(CCN2C(=O)C3C4CCC(C4=C(C)C)C3C2=O)cc1OC` (centres undefined) as the compound, how does the Potency read?
**A.** inconclusive: 9.2 µM [cytotoxic, partial curve]

**Q.** With `Cc1nn(-c2ccccc2)c(Cl)c1/C=C1\SC(=S)NC1=O` as the compound, how does the Potency read?
**A.** inactive

**Q.** For `C/C(CC(=O)NCc1ccco1)=N\NC(=O)c1ccc(Cl)cc1Cl`, which Potency is on record?
**A.** inconclusive: 18.4 µM [rising, single point]

**Q.** Which Potency does the source give for `Cc1cccc(/C=C/c2onc(C)c2S(=O)(=O)N2CCC(C(=O)N3CCC(C)CC3)CC2)c1` here?
**A.** inconclusive: 16.4 µM [cytotoxic, single point]

**Q.** Which Potency does the source give for `Cc1cc2nc(-c3ccc(SCC(=O)Nc4nccs4)nc3)[nH]c2cc1C` here?
**A.** inconclusive: 18.4 µM [cytotoxic, single point]

**Q.** Which Potency does the source give for `CCCCNCc1nc2ccccc2c(=O)[nH]1` here?
**A.** inactive

**Q.** With `O=C(O)c1cccc(Cn2c(Cl)c(/C=N/Nc3ccccc3)sc2=O)c1` as the compound, how does the Potency read?
**A.** inconclusive: 18.4 µM [rising, partial curve, poor fit]
